Laboratory results as given in patent US20050042220A1 (GENETICS INSTITUTE, published 2005).
No constants are given. Whether binding was seen depends on the method and setting. Some binding calls cover weakened binding; strength is not graded here. Tags and fused reporters may be left off the sequences shown.

Experiments:
[1] = molecular target: T1, complex of bio-IL-22 bound to immobilized IL-22R-Fc (human) (UniProt Q8N6P7); assay: ELISA, captured IL-22R-Fc, IL-10R2-Fc added together with bio-IL-22; read-out is bound bio-IL-22 (FIG. 9A)
T1 sequence (chain, biotinylated with EZ-Link Sulfo-NHS-Biotin (sites not stated)) 1: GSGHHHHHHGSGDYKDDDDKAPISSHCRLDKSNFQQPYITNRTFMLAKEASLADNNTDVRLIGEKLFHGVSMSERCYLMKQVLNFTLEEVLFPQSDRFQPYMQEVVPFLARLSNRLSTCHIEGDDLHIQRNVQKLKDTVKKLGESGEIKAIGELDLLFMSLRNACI
T1 sequence (chain, biotinylated with EZ-Link Sulfo-NHS-Biotin (sites not stated)) 2: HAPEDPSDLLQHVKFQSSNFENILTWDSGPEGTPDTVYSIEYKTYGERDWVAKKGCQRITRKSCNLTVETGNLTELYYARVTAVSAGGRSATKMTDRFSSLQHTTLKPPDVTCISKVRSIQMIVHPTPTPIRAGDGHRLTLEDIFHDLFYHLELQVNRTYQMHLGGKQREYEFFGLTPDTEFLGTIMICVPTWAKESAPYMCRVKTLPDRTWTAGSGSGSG

[2] = molecular target: T1, complex of bio-IL-22 bound to immobilized IL-22R-Fc (human); assay: indirect ELISA: 50 ng/ml IL-22R-Fc captured on anti-human IgG wells, bio-IL-22 (30 ng/ml) bound, washed, then 1 h with titrated IL-10R2-Fc; retained bio-IL-22 read with streptavidin-HRP, A450 (IL-10R2-Fc itself is not detected)
[3] = molecular target: T1, complex of bio-IL-22 bound to immobilized IL-22R-Fc (human); assay: indirect ELISA: 50 ng/ml IL-22R-Fc captured on anti-human IgG wells, blocked with 100 ug/ml human IgG; IL-10R2-Fc titrated together with bio-IL-22 (30 ng/ml); bound bio-IL-22 read with streptavidin-HRP, A450 (IL-10R2-Fc itself is not detected)
[4] = molecular target: T1, complex of bio-IL-22 bound to immobilized IL-22R-Fc (human); assay: ELISA, IL-10R2-Fc added after bio-IL-22 had bound captured IL-22R-Fc; read-out is retained bio-IL-22 (FIG. 9B)
[5] = molecular target: T2, biotinylated N terminal His/Flag tagged human IL-22 (human); assay: ELISA, bio-IL-22 on streptavidin plates, anti-hIgG-HRP (FIG. 6B)
T2 sequence (chain, biotinylated with EZ-Link Sulfo-NHS-Biotin (sites not stated)): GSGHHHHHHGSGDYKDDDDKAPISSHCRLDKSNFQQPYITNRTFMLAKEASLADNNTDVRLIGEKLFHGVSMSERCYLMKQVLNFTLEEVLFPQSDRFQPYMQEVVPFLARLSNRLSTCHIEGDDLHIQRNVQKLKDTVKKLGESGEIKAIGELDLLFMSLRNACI

[6] = molecular target: T2, biotinylated N terminal His/Flag tagged human IL-22 (human); assay: ELISA: bio-IL-22 (1 ug/ml) captured on streptavidin plates; receptor Fc in diluted CHO conditioned medium titrated; goat anti-human IgG-HRP, A450
[7] = molecular target: T2, biotinylated N terminal His/Flag tagged human IL-22 (human); assay: ELISA, bio-IL-22 on streptavidin plates (FIG. 6B)
[8] = molecular target: T2, biotinylated N terminal His/Flag tagged human IL-22 (human); assay: blocking ELISA: IL-22BP-Fc pre-incubated 30 min with bio-IL-22 (30 ng/ml), added to 50 ng/ml IL-22R-Fc captured on anti-human IgG wells; bound bio-IL-22 read with streptavidin-HRP, A450; blocked partner IL-22R-Fc
[9] = molecular target: T2, biotinylated N terminal His/Flag tagged human IL-22 (human); assay: blocking ELISA: IL-22BP-Fc pre-incubated 30 min with bio-IL-22 (5 ng/ml), added to 50 ng/ml total Fc of co-expressed IL-22R-Fc/IL-10R2-Fc captured on anti-human IgG wells; bound bio-IL-22 read with streptavidin-HRP, A450; blocked partner IL-22R-Fc/IL-10R2-Fc

Measured: binding

B1: human IL-10R2 extracellular domain-Fc fusion homodimer (Fc fusion)
chain: MVPPPENVRMNSVNFKNILQWESPAFAKGNLTFTAQYLSYRIFQDKCMNTTLTECDFSSLSKYGDHTLRVRAEFADEHSDWVNITFCPVDDTIIGPPGMQVEVLADSLHMRFLAPKIENEYETWTMKNVYNSWTYNVQYWKNGTDEKFQITPQYDFEVLRNLEPWTTYCVQVRGFLPDRNKAGEWSEPVCEQTTHDETVPSAGSGSGSG
notes: extracellular domain; Used as CHO conditioned medium, not purified; also called IL-10R2-Fc; IL-10R2ECD-Fc; not shown: human IgG1 Fc
binds: [1] | [2] | [3] | [4]

B2: human IL-22R extracellular domain-Fc fusion homodimer (Fc fusion)
chain: HAPEDPSDLLQHVKFQSSNFENILTWDSGPEGTPDTVYSIEYKTYGERDWVAKKGCQRITRKSCNLTVETGNLTELYYARVTAVSAGGRSATKMTDRFSSLQHTTLKPPDVTCISKVRSIQMIVHPTPTPIRAGDGHRLTLEDIFHDLFYHLELQVNRTYQMHLGGKQREYEFFGLTPDTEFLGTIMICVPTWAKESAPYMCRVKTLPDRTWTAGSGSGSG
notes: extracellular domain; Used as CHO conditioned medium, not purified; also called IL-22R-Fc; IL-22RECD-Fc; not shown: human IgG1 Fc
binds: [5] | [6] | [7]

B3: human IL-22 binding protein-Fc fusion (Fc fusion)
chain: TQSTHESLKPQRVQFQSRNFHNILQWQPGRALTGNSSVYFVQYKIYGQRQWKNKEDCWGTQELSCDLTSETSDIQEPYYGRVRAASAGSYSEWSMTPRFTPWWETKIDPPVMNITQVNGSLLVILHAPNLPYRYQKEKNVSIEDYYELLYRVFIINNSLEKEQKVYEGAHRAVEIEALTPHSSYCVVAEIYQPMLDRRSQRSEERCVEIPAGSGSGSG
notes: Fc fusion homodimer, used as CHO conditioned medium; also called IL-22BP-Fc; huIL22BP-huFc; not shown: human IgG1 Fc
binds: [8] | [9]
